From patent publication US11654126B2, “Method of inhibiting the proliferation of T and/or B lymphocytes via dimethylarginine derivatives and lymphocytes proliferation inhibitor” (GUANGZHOU MEDICAL UNIVERSITY, priority 2019, dated 2023)
At least one structure is not confirmed: it was looked up by name or label, or the drawing left a doubt.

Tested on: activated human T cells
Experiment: Proliferation of activated human T cells (compound added 24 h after anti-CD3/CD28 stimulation)
Assay type: cell-based
Details: ADMA 1 μM, PD404182 100 nM, rapamycin 50 nM; 24 h and 48 h after addition; vs control; FIG. 5A, 5B
Description: Human T cells were stimulated with anti-human CD3 and CD28 for 24 hours. […] Flow cytometry was used to analyze the number of live cells and the number of divided cells. The results are shown in FIG. 5A and FIG. 5B, respectively.

## CO[C@H]1C[C@@H]2CC[C@@H](C)[C@@](O)(O2)C(=O)C(=O)N2CCCC[C@H]2C(=O)O[C@H]([C@H](C)C[C@@H]2CC[C@@H](O)[C@H](OC)C2)CC(=O)[C@H](C)/C=C(\C)[C@@H](O)[C@@H](OC)C(=O)[C@H](C)C[C@H](C)/C=C/C=C/C=C/1C [rapamycin, reference compound]
  number of live cells: basically the same
